Results on three sequences are retold here after patent US6030780.

By UniProt entry, the sequences of proteins in these tests, tags left out. Where a name states a change or a piece, a line headed by the entry shows the natural chain unless it says otherwise.
UniProt P42224: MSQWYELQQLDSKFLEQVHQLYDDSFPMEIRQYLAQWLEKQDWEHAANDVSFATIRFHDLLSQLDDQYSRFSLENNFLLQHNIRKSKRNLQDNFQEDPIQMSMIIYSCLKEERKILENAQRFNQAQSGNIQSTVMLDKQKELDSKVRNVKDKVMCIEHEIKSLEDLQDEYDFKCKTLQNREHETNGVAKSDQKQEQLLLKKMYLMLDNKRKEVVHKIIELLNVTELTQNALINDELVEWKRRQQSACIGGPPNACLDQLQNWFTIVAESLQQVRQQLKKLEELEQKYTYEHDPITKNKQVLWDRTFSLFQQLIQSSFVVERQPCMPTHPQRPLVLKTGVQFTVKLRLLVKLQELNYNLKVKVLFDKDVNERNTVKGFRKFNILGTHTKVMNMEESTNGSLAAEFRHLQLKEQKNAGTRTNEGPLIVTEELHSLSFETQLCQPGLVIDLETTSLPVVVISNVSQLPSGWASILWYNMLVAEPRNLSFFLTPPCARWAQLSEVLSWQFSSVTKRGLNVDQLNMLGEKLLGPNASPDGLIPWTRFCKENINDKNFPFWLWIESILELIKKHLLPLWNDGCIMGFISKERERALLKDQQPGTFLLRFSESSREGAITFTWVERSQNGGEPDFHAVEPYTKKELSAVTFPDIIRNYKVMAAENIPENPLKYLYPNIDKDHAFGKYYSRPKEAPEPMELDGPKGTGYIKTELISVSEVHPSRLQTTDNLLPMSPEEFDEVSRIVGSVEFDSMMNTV

Series [1] deals with Stat1alpha, phosphorylated Tyr701 (Homo sapiens) (UniProt P42224). Briefly: EMSA. The settings on record: purified recombinant protein, label: 32P, variant of 2x cfosWT (10 bp spacing).
Series [2] addresses Stat1tc, phosphorylated Tyr701 (Homo sapiens) (UniProt P42224). Briefly: EMSA. The settings on record: dimer and 2x(dimer) formed but displaced in <1 min; no N-terminal 131 aa; purified recombinant protein; label: 32P. (In EMSA bound probe runs differently from free probe, usually more slowly.)

Weaker means in comparison with the reference protein, sequence or condition of that experiment. For part of these data: For at least one entry, the source does not settle the construct or the ends of the probe.

For the sequence “AGTCAGTTCCCGTCAATGAGTTCCCGTCAATGCA (double strand) [2x cfosWT (5 bp spacing)]”, the binding result in series [1] (much less enhanced stability of 2x(dimer) complex) is reported as “binds more weakly”.

In the case of “AGTCATTTCCCGTCAATGCATCAGTTGACGGGAAAGTAGT (double strand) [2x cfosWT (inverted repeat)]”, the binding result in series [1] (much less 2x(dimer) complex, no increased stability) is given as “binds more weakly”.

As for “AGTCAGTTCCCGTCAATGCATCAGGTTCCCGTCAATGCAT (double strand) [2x cfosWT (10 bp spacing)]”, the binding result in series [2] is reported as “binds more weakly”.
